Here are results for 6 molecules from publication PMC4206862.

By UniProt entry, the sequences of proteins in these tests, tags left out.
UniProt Q99832: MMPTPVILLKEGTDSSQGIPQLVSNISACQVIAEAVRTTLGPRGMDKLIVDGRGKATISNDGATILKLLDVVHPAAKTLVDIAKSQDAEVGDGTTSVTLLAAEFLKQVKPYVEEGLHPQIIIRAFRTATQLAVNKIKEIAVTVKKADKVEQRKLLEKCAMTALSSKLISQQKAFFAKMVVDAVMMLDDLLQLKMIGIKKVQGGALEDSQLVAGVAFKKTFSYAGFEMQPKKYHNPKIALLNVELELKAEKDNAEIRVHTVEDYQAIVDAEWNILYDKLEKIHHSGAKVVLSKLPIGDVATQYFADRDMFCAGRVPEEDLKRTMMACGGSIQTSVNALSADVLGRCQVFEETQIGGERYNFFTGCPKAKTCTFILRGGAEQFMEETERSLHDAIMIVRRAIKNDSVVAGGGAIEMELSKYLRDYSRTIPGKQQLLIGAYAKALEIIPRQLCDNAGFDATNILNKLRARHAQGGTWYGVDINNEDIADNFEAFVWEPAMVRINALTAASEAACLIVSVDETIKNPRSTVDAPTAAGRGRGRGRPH
UniProt P50990: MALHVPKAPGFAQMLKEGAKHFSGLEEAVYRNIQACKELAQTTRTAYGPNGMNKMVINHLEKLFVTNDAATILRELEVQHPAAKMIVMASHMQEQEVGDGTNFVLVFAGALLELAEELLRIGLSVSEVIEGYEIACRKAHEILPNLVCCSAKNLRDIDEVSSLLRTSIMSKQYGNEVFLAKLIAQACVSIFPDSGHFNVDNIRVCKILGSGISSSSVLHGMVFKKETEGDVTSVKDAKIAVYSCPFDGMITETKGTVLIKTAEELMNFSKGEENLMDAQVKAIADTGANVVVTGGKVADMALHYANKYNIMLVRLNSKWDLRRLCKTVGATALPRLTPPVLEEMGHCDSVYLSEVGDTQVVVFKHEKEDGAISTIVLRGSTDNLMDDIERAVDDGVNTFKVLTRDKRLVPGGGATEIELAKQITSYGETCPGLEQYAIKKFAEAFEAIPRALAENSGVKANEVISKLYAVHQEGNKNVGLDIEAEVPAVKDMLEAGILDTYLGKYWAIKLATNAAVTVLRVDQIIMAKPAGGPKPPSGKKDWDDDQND
UniProt Q8WUM4: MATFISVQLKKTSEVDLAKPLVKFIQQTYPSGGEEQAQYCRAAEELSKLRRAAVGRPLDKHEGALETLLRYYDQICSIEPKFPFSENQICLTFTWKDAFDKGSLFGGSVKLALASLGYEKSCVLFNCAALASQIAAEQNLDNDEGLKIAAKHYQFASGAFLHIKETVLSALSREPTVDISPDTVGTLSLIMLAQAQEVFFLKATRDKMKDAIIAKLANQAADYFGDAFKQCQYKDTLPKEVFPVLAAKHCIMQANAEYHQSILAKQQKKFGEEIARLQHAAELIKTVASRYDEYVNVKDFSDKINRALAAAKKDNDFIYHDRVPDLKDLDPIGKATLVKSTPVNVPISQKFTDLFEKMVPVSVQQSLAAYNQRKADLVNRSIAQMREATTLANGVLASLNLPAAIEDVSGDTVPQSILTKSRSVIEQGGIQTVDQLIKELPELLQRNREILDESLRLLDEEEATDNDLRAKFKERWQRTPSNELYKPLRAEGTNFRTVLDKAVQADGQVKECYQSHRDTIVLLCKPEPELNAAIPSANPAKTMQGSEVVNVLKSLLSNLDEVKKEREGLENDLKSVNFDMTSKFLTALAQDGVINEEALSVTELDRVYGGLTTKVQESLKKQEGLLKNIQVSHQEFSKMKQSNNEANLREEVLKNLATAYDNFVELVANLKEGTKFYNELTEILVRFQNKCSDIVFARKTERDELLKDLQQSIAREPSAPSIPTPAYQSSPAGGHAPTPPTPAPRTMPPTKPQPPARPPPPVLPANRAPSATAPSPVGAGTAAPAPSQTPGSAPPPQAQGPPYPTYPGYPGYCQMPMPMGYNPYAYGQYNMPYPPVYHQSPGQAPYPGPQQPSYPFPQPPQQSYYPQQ
UniProt P55060: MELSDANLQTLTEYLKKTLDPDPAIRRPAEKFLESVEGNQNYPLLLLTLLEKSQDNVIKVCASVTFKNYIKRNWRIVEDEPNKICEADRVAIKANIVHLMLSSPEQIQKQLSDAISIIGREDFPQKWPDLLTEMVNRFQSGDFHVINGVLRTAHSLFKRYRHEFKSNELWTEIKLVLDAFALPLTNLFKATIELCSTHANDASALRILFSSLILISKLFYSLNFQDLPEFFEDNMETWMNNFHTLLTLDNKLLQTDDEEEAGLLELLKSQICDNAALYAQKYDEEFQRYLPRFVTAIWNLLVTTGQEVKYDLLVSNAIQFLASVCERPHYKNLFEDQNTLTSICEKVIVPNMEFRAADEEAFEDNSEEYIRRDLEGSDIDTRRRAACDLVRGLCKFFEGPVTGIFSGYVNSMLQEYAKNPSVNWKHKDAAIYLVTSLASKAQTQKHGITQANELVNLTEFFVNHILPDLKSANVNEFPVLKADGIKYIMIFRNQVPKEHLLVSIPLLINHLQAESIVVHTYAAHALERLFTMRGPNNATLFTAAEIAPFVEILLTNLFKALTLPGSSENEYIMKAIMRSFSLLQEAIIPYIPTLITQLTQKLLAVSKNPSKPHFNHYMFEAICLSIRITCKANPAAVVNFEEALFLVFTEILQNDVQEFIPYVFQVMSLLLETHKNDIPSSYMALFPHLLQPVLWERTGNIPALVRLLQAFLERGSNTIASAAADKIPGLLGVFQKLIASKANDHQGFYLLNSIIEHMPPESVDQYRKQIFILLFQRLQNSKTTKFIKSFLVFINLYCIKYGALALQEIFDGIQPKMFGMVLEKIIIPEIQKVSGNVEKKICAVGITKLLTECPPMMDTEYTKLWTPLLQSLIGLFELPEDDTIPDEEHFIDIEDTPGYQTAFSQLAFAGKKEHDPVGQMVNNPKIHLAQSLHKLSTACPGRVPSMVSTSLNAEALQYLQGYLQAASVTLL

The target of assay [1] is Flag-epitope tagged FTO (fat mass and obesity-associated protein), WT full-length (UniProt Q9C0B1). As to the kind of experiment: affinity purification with mass spectrometry; IP of Flag-epitope tagged FTO from lysates of transiently transfected HEK-293 cells; gel bands digested, LC-MSMS; control: vector-transfected cells.
Assay [2] shares this target. Described as above. This is another data set of the same source.

Read-outs that look alike come from different tables or passages of the source. Results are given in words; binding and its absence hold for the method and conditions named. Binding seen in cells or lysates may run through a third protein. These calls come from enrichment with a bait or labelling near it, and not all partners need be listed.

On to “T-complex protein subunit eta (from UniProt Q99832 1-543)”, for which the binding entry in assay [1] is recorded as “binds”.

With “T-complex protein 1 subunit theta (from UniProt P50990 1-548)”, the binding entry in assay [1] was “binds”. Still for that read-out and setting: in the case of “Programmed cell death 6-interacting protein (from UniProt Q8WUM4 1-868)” it was “binds”. The same measure, in the same setting: in the case of “Exportin 2 (XPO2), endogenous in HEK-293 cells (from UniProt P55060 1-971)” it was “binds”.

B1: Methionyl-tRNA sythatase (protein, UniProt P56192 1-900)
chain: MRLFVSDGVPGCLPVLAAAGRARGRAEVLISTVGPEDCVVPFLTRPKVPVLQLDSGNYLFSTSAICRYFFLLSGWEQDDLTNQWLEWEATELQPALSAALYYLVVQGKKGEDVLGSVRRALTHIDHSLSRQNCPFLAGETESLADIVLWGALYPLLQDPAYLPEELSALHSWFQTLSTQEPCQRAAETVLKQQGVLALRPYLQKQPQPSPAEGRAVTNEPEEEELATLSEEEIAMAVTAWEKGLESLPPLRPQQNPVLPVAGERNVLITSALPYVNNVPHLGNIIGCVLSADVFARYSRLRQWNTLYLCGTDEYGTATETKALEEGLTPQEICDKYHIIHADIYRWFNISFDIFGRTTTPQQTKITQDIFQQLLKRGFVLQDTVEQLRCEHCARFLADRFVEGVCPFCGYEEARGDQCDKCGKLINAVELKKPQCKVCRSCPVVQSSQHLFLDLPKLEKRLEEWLGRTLPGSDWTPNAQFITRSWLRDGLKPRCITRDLKWGTPVPLEGFEDKVFYVWFDATIGYLSITANYTDQWERWWKNPEQVDLYQFMAKDNVPFHSLVFPCSALGAEDNYTLVSHLIATEYLNYEDGKFSKSRGVGVFGDMAQDTGIPADIWRFYLLYIRPEGQDSAFSWTDLLLKNNSELLNNLGNFINRAGMFVSKFFGGYVPEMVLTPDDQRLLAHVTLELQHYHQLLEKVRIRDALRSILTISRHGNQYIQVNEPWKRIKGSEADRQRAGTVTGLAVNIAALLSVMLQPYMPTVSATIQAQLQLPPPACSILLTNFLCTLPAGHQIGTVSPLFQKLENDQIESLRQRFGGGQAKTSPKPAVVETVTTAKPQQIQALMDEVTKQGNIVRELKAQKADKNEVAAEVAKLLDLKKQLAVAEGKPPEAPKGKKKK
As for B1, in assay [2], the binding result is reported as “binds”.

B2: Coatomer subunit delta (protein, UniProt P48444 1-511)
chain: MVLLAAAVCTKAGKAIVSRQFVEMTRTRIEGLLAAFPKLMNTGKQHTFVETESVRYVYQPMEKLYMVLITTKNSNILEDLETLRLFSRVIPEYCRALEENEISEHCFDLIFAFDEIVALGYRENVNLAQIRTFTEMDSHEEKVFRAVRETQEREAKAEMRRKAKELQQARRDAERQGKKAPGFGGFGSSAVSGGSTAAMITETIIETDKPKVAPAPARPSGPSKALKLGAKGKEVDNFVDKLKSEGETIMSSSMGKRTSEATKMHAPPINMESVHMKIEEKITLTCGRDGGLQNMELHGMIMLRISDDKYGRIRLHVENEDKKGVQLQTHPNVDKKLFTAESLIGLKNPEKSFPVNSDVGVLKWRLQTTEESFIPLTINCWPSESGNGCDVNIEYELQEDNLELNDVVITIPLPSGVGAPVIGEIDGEYRHDSRRNTLEWCLPVIDAKNKSGSLEFSIAGQPNDFFPVQVSFVSKKNYCNIQVTKVTQVDGNSPVRFSTETTFLVDKYEIL
Regarding B2, the binding result in assay [2] was “binds”.
